Experimental data published in article PMC8914023.
These are yes or no findings as the source states them, for the method shown. A result given as binding can be weak or reduced; the word gives no strength. Tags and fused reporters may be left off the sequences shown.

Molecular target: T1, Entamoeba histolytica actophorin (EhActo) (Entamoeba histolytica) (UniProt C4LVG4)
T1 sequence: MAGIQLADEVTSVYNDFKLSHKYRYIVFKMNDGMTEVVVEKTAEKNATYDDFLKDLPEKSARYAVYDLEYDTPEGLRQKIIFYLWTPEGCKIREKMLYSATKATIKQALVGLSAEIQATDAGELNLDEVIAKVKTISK
Assay: co-sedimentation; 5 µM F-actin and 5 µM EhP3 with 0, 2.5, 5 or 10 µM EhActo; 100,000 g 45 min 4°C, SDS-PAGE of supernatant and pellet; both purified

EhP3 (Entamoeba histolytica 14-3-3 protein isoform 3)
binding: binds
